The supplement of paper PMC4604168 (melanoma cell lines)
Some of the results follow. Single values are uncertain, as repeats are few or missing.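 Cells were imaged in 1,536-well plates, and nuclei stained with an antibody against cleaved PARP were counted against all DNA-stained nuclei to give the apoptosis fraction. Screening doses were chosen to leave most cells alive, and resting and induced cleaved-PARP levels differ strongly between cell lines.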

Tests used:
Assay in all cases: cleaved PARP positive nuclei fraction relative to DMSO control; melanoma cells; higher = more apoptosis
Settings in all cases: library dose: low library concentration; 72 h
[1] = tested on: WM115
[2] = tested on: WM1716
[3] = tested on: WM1745
[4] = tested on: WM3526
[5] = tested on: WM3619
[6] = tested on: WM451Lu

Row | Structure (SMILES) | cleaved PARP positive nuclei fraction [1] | cleaved PARP positive nuclei fraction [2] | cleaved PARP positive nuclei fraction [3] | cleaved PARP positive nuclei fraction [4] | cleaved PARP positive nuclei fraction [5] | cleaved PARP positive nuclei fraction [6]
1 | COc1ccc(C2=N[C@@H](c3ccc(Cl)cc3)[C@@H](c3ccc(Cl)cc3)N2C(=O)N2CCNC(=O)C2)c(OC(C)C)c1 [Nutlin-3] + Cn1cncc1[C@@](N)(c1ccc(Cl)cc1)c1ccc2c(c1)c(-c1cccc(Cl)c1)cc(=O)n2C [tipifarnib] (first compound 0.1 µM, partner dose 0.01 µM) | 288% | 67.7% | 92.2% | 125% | 81.8% | 71.6%
2 | NC1(c2ccc(-c3nc4ccn5c(=O)[nH]nc5c4cc3-c3ccccc3)cc2)CCC1 + Nc1ccn([C@@H]2O[C@H](CO)[C@@H](O)C2(F)F)c(=O)n1 [gemcitabine] (first compound 0.4 µM, partner dose 0.0004 µM) | 218% | 136% | 110% | 47.4% | 119% | 88%
3 | CCCCCCCCc1ccc(CCC(N)(CO)CO)cc1 [fingolimod] + Cc1cc(Nc2cc(N3CCN(C)CC3)nc(/C=C/c3ccccc3)n2)n[nH]1 [ENMD2076] (first compound 2 µM, partner dose 0.04 µM) | 108% | 51.8% | 126% | 87.9% | 108% | 28.2%
4 | C[C@]1(O)C[C@@H](c2nc(-c3ccc4ccc(-c5ccccc5)nc4c3)c3c(N)nccn32)C1 + Cn1nnc2c(C(N)=O)ncn2c1=O [temozolomide] (first compound 0.4 µM, partner dose 2 µM) | 27.4% | 188% | 107% | 92.4% | 80.7% | 245%
5 | CC(=O)O[C@@]12CO[C@@H]1C[C@H](O)[C@@]1(C)C(=O)[C@H](O)C3=C(C)[C@@H](OC(=O)[C@H](O)[C@@H](NC(=O)OC(C)(C)C)c4ccccc4)C[C@@](O)([C@@H](OC(=O)c4ccccc4)[C@H]21)C3(C)C [Docetaxel] + Cn1c(=O)n(-c2ccc(C(C)(C)C#N)cc2)c2c3cc(-c4cnc5ccccc5c4)ccc3ncc21 [NVP-BEZ235] (first compound 0.0001 µM, partner dose 0.004 µM) | 349% | 121% | 241% | 269% | 128% | 144%
6 | NC1(c2ccc(-c3nc4ccn5c(=O)[nH]nc5c4cc3-c3ccccc3)cc2)CCC1 + Cn1nnc2c(C(N)=O)ncn2c1=O [temozolomide] (first compound 0.4 µM, partner dose 2 µM) | 287% | 168% | 113% | 57.7% | 128% | 86.9%
7 | NC(=O)c1ccc(N(C(N)=O)c2c(F)cccc2F)nc1-c1ccc(F)cc1F + COc1ccc(C2=N[C@@H](c3ccc(Cl)cc3)[C@@H](c3ccc(Cl)cc3)N2C(=O)N2CCNC(=O)C2)c(OC(C)C)c1 [Nutlin-3] (first compound 0.4 µM, partner dose 0.1 µM) | 105% | 76.8% | 104% | 43.9% | 86.3% | 92.1%
8 | C[C@@H](N)c1ccc(C(=O)Nc2ccnc3[nH]ccc23)cc1 + CCN(CC)CCCCNc1ncc2cc(-c3cc(OC)cc(OC)c3)c(NC(=O)NC(C)(C)C)nc2n1 [PD173074] (first compound 0.4 µM, partner dose 0.1 µM) | 32.1% | 200% | 100% | 61.8% | 89.8% | 159%
9 | Cn1sc(=O)n(Cc2ccccc2)c1=O + Cc1cc([N+](=O)[O-])ccc1NS(=O)(=O)c1cc(Cl)ccc1Cl [FH535] (first compound 0.4 µM, partner dose 1 µM) | 165% | 121% | 83.5% | 73.3% | 111% | 111%
10 | Cn1sc(=O)n(Cc2ccccc2)c1=O + NC1(c2ccc(-c3nc4ccn5c(=O)[nH]nc5c4cc3-c3ccccc3)cc2)CCC1 [MK2206] (first compound 0.4 µM, partner dose 0.4 µM) | 221% | 91.1% | 85.8% | 284% | 108% | 111%
11 | Cn1sc(=O)n(Cc2ccccc2)c1=O + COC(=O)c1sccc1S(=O)(=O)Nc1ccc(Nc2ccccc2)cc1OC [GSK0660] (first compound 0.4 µM, partner dose 1 µM) | 54.6% | 49.5% | 89.5% | 72.3% | 146% | 97.9%
12 | CN(c1ncccc1CNc1nc(Nc2ccc3c(c2)CC(=O)N3)ncc1C(F)(F)F)S(C)(=O)=O + CCN(CC)CCCCNc1ncc2cc(-c3cc(OC)cc(OC)c3)c(NC(=O)NC(C)(C)C)nc2n1 [PD173074] (first compound 0.08 µM, partner dose 0.1 µM) | 128% | 107% | 123% | 75.8% | 69.1% | 75.6%
13 | C[C@]1(O)C[C@@H](c2nc(-c3ccc4ccc(-c5ccccc5)nc4c3)c3c(N)nccn32)C1 + O=C(O)c1ccc2c(c1)nc(Nc1cccc(Cl)c1)c1ccncc12 [CX4945] (first compound 0.4 µM, partner dose 0.4 µM) | 358% | 249% | 110% | 103% | 92.3% | 101%
14 | C[C@@H](N)c1ccc(C(=O)Nc2ccnc3[nH]ccc23)cc1 + O=C(O)[C@@H]1[O][Sb](=[O])([O][Sb]2(=[O])[O][C@H]([C@H](O)CO)[C@H](O)[C@H](C(=O)O)[O]2)[O][C@H]([C@H](O)CO)[C@@H]1O [stibogluconate] (first compound 0.4 µM, partner dose 2 µM) | 187% | 349% | 123% | 74.9% | 68.8% | 41.3%
15 | NC(=O)c1ccc(N(C(N)=O)c2c(F)cccc2F)nc1-c1ccc(F)cc1F + CS(=O)(=O)c1ccc(C(=O)Nc2ccc(Cl)c(-c3ccccn3)c2)c(Cl)c1 [vismodegib] (first compound 0.4 µM, partner dose 1 µM) | 151% | 46.1% | 81% | 34.3% | 93% | 155%
16 | C[C@@H](N)c1ccc(C(=O)Nc2ccnc3[nH]ccc23)cc1 + COc1ccc(-c2ccc3c(N4CCOCC4)nc(N4C[C@@H](C)O[C@@H](C)C4)nc3n2)cc1CO [KU0063794] (first compound 0.4 µM, partner dose 0.02 µM) | 31.8% | 96.6% | 124% | 71.9% | 104% | 73.2%
17 | Cn1sc(=O)n(Cc2ccccc2)c1=O + CCCS(=O)(=O)Nc1ccc(F)c(C(=O)c2c[nH]c3ncc(Cl)cc23)c1F [PLX4720] (first compound 0.4 µM, partner dose 0.08 µM) | 51.9% | 71.2% | 83.3% | 80.1% | 108% | 86.9%
18 | CS(=O)(=O)c1ccc(C(=O)Nc2ccc(Cl)c(-c3ccccn3)c2)c(Cl)c1 [vismodegib] + NCC(=O)Nc1ccc(-n2nc(C(F)(F)F)cc2-c2ccc3c(ccc4ccccc43)c2)cc1 [OSU03012] (first compound 1 µM, partner dose 1 µM) | 77.8% | 145% | 77.6% | 97.2% | 102% | 237%
19 | Cn1sc(=O)n(Cc2ccccc2)c1=O + CS(=O)(=O)CCNCc1ccc(-c2ccc3ncnc(Nc4ccc(OCc5cccc(F)c5)c(Cl)c4)c3c2)o1 [lapatinib] (first compound 0.4 µM, partner dose 0.8 µM) | 144% | 35.1% | 95.1% | 75.9% | 116% | 90.2%
20 | CS(=O)(=O)c1ccc(C(=O)Nc2ccc(Cl)c(-c3ccccn3)c2)c(Cl)c1 [vismodegib] + C=CCn1c(=O)c2cnc(Nc3ccc(N4CCN(C)CC4)cc3)nc2n1-c1cccc(C(C)(C)O)n1 [MK1775] (first compound 1 µM, partner dose 0.02 µM) | 163% | 180% | 109% | 62% | 112% | 64.3%
21 | C[C@]1(O)C[C@@H](c2nc(-c3ccc4ccc(-c5ccccc5)nc4c3)c3c(N)nccn32)C1 + CNC(=O)c1cc(Oc2ccc(NC(=O)Nc3ccc(Cl)c(C(F)(F)F)c3)cc2)ccn1 [sorafenib] (first compound 0.4 µM, partner dose 0.4 µM) | 176% | 25.9% | 132% | 86.4% | 98.8% | 179%
22 | NC1(c2ccc(-c3nc4ccn5c(=O)[nH]nc5c4cc3-c3ccccc3)cc2)CCC1 + COc1ccc2c(c1)CCC1C2CCC2(C)C(NCCCCCCN3C(=O)C=CC3=O)CCC12 [U73122] (first compound 0.4 µM, partner dose 0.4 µM) | 113% | 180% | 101% | 141% | 97.9% | 73.2%
23 | C[C@@H](N)c1ccc(C(=O)Nc2ccnc3[nH]ccc23)cc1 + Cn1cncc1[C@@](N)(c1ccc(Cl)cc1)c1ccc2c(c1)c(-c1cccc(Cl)c1)cc(=O)n2C [tipifarnib] (first compound 0.4 µM, partner dose 0.01 µM) | 73.3% | 242% | 117% | 28% | 104% | 31%
24 | CC1(C)CCC(c2ccc(Cl)cc2)=C(CN2CCN(c3ccc(C(=O)NS(=O)(=O)c4ccc(N[C@H](CCN5CCOCC5)CSc5ccccc5)c(S(=O)(=O)C(F)(F)F)c4)cc3)CC2)C1 + Cc1cc(Nc2cc(N3CCN(C)CC3)nc(/C=C/c3ccccc3)n2)n[nH]1 [ENMD2076] (first compound 0.4 µM, partner dose 0.04 µM) | 308% | 131% | 2450% | 451% | 138% | 113%
25 | CC(=O)O[C@@]12CO[C@@H]1C[C@H](O)[C@@]1(C)C(=O)[C@H](O)C3=C(C)[C@@H](OC(=O)[C@H](O)[C@@H](NC(=O)OC(C)(C)C)c4ccccc4)C[C@@](O)([C@@H](OC(=O)c4ccccc4)[C@H]21)C3(C)C [Docetaxel] + COC(=O)c1sccc1S(=O)(=O)Nc1ccc(Nc2ccccc2)cc1OC [GSK0660] (first compound 0.0001 µM, partner dose 1 µM) | 190% | 197% | 143% | 223% | 114% | 331%

Full records from above. Values in the order: cleaved PARP positive nuclei fraction [1] | cleaved PARP positive nuclei fraction [2] | cleaved PARP positive nuclei fraction [3] | cleaved PARP positive nuclei fraction [4] | cleaved PARP positive nuclei fraction [5] | cleaved PARP positive nuclei fraction [6]
NC(=O)c1ccc(N(C(N)=O)c2c(F)cccc2F)nc1-c1ccc(F)cc1F + CS(=O)(=O)c1ccc(C(=O)Nc2ccc(Cl)c(-c3ccccn3)c2)c(Cl)c1 [vismodegib] (first compound 0.4 µM, partner dose 1 µM) is listed with 151% | 46.1% | 81% | 34.3% | 93% | 155%
CCCCCCCCc1ccc(CCC(N)(CO)CO)cc1 [fingolimod] + Cc1cc(Nc2cc(N3CCN(C)CC3)nc(/C=C/c3ccccc3)n2)n[nH]1 [ENMD2076] (first compound 2 µM, partner dose 0.04 µM) is listed with 108% | 51.8% | 126% | 87.9% | 108% | 28.2%
